According to paper PMC12475018:
These are yes or no findings as the source states them, for the method shown. Some binding calls cover weakened binding; strength is not graded here.

Experiments:
[1] = biological target: T1, Slx4(1-758) (mouse) (UniProt Q6P1D7); experiment: co-purification (affinity, heparin, SEC); proteins co-expressed in co-infected Sf9 cells; MBP affinity chromatography, elution with 20 mM maltose; HiTrap Heparin HP with NaCl gradient; MBP cleaved by TEV and HT by 3C overnight at 4 °C; Superose 6 Increase 10/300 GL; 20 mM Tris pH 8.0, 150 mM-1 M NaCl, 10% glycerol, 3 mM B-ME
T1 sequence: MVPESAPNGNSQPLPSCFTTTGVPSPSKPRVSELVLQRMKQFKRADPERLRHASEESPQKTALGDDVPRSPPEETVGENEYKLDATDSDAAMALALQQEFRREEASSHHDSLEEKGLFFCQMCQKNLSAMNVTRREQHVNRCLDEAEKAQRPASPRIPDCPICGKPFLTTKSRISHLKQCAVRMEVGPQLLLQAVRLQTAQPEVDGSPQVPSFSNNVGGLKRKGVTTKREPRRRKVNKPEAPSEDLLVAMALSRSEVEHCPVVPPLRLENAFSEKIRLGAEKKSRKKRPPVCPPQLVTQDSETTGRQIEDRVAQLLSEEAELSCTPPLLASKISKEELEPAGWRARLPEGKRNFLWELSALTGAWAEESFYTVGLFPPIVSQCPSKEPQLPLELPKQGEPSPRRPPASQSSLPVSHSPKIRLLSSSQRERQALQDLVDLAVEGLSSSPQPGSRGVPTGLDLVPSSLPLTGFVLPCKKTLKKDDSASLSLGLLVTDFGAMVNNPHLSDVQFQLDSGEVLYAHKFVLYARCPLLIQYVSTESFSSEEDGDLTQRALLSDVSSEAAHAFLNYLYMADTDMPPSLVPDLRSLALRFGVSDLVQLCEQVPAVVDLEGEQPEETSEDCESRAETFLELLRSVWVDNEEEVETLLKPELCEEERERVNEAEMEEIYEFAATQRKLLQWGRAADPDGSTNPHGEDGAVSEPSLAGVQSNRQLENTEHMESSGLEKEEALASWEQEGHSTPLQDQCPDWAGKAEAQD

[2] = biological target: T2, Ercc1 (HT-3C-Full length) (mouse) (UniProt P07903); experiment: as above
T2 sequence: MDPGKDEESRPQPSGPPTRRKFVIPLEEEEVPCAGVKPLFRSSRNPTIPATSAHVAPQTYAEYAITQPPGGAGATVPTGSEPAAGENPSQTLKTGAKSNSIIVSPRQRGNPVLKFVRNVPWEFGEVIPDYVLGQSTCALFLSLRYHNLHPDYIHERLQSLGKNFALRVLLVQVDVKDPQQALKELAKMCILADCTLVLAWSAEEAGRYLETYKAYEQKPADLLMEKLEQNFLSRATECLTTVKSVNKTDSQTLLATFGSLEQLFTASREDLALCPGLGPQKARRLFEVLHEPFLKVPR

B1: Xpf (full length) (enzyme, UniProt Q9QZD4 1-917)
chain: MEPGLSGERRSMAPLLEYERQQVLELLDSDGLVVCARGLGTDRLLYHFLRLHCHPACLVLVLNTQPAEEEYFINQLKIEGVEHLPRRVTNEIASNSRYEVYTQGGIIFATSRILVVDFLTGRIPSDLITGILVYRAHRIIESCQEAFILRLFRQKNKRGFIKAFTDNAVAFDTGFCHVERVMRNLFVRKLYLWPRFHVAVNSFLEQHKPEVVEIHVSMTPAMLAIQTAILDILNACLKELKCHNPSLEVEDLSLENALGKPFDKTIRHYLDPLWHQLGAKTKSLVQDLKILRTLLQYLSQYDCVTFLNLLESLRATEKVFGQNSGWLFLDASTSMFVNARARVYRVPDVKLNKKAKTSEKTSSPEVQETKKELVLESNPKWEALTDVLKEIEAENKESEALGGPGRVLICASDDRTCCQLRDYLSAGAETFLLRLYRKTFEKDGKAEEVWVNVRKGDGPKRTTKSDKRPKAAPNKERASAKRGAPLKRKKQELTLTQVLGSAEEPPEDKALEEDLCRQTSSSPEGCGVEIKRESFDLNVSSDAAYGILKEPLTIIHPLLGCSDPYALTRVLHEVEPRYVVLYDAELTFVRQLEIYRASRPGKPLRVYFLIYGGSTEEQRYLTALRKEKEAFEKLIREKASMVVPEEREGRDETNLDLARGSAALDAPTDTRKAGGQEQNGTQSSIVVDMREFRSELPSLIHRRGIDIEPVTLEVGDYILTPELCVERKSVSDLIGSLHSGRLYSQCLAMSRYYRRPVLLIEFDPSKPFSLAPRGAFFQEMSSSDVSSKLTLLTLHFPRLRLLWCPSPHATAELFEELKQNKPQPDAATAMAITADSETLPESDRYNPGPQDFVLKMPGVNAKNCRSLMNQVKNIAELATLSLERLTTILGHSGNAKQLHDFLHTAYADLVSKGRVRK
For B1, the binding [1] was “binds” and the binding [2] was “binds”.

B2: Ercc1 (HT-3C-Full length) (protein, UniProt P07903 1-298)
chain: MDPGKDEESRPQPSGPPTRRKFVIPLEEEEVPCAGVKPLFRSSRNPTIPATSAHVAPQTYAEYAITQPPGGAGATVPTGSEPAAGENPSQTLKTGAKSNSIIVSPRQRGNPVLKFVRNVPWEFGEVIPDYVLGQSTCALFLSLRYHNLHPDYIHERLQSLGKNFALRVLLVQVDVKDPQQALKELAKMCILADCTLVLAWSAEEAGRYLETYKAYEQKPADLLMEKLEQNFLSRATECLTTVKSVNKTDSQTLLATFGSLEQLFTASREDLALCPGLGPQKARRLFEVLHEPFLKVPR
In the case of B2, the binding [1] is reported as “binds”.
